From PMC3726431
No constants are given. Whether binding was seen depends on the method and setting. In cells and extracts the contact can be indirect. Some entries that bind do so weakly or less than the wild type. Where a sequence is shown, tags or fusion partners need not be part of it.

The chains behind the UniProt entries cited, without tags or fusion partners.
UniProt Q9WVM3: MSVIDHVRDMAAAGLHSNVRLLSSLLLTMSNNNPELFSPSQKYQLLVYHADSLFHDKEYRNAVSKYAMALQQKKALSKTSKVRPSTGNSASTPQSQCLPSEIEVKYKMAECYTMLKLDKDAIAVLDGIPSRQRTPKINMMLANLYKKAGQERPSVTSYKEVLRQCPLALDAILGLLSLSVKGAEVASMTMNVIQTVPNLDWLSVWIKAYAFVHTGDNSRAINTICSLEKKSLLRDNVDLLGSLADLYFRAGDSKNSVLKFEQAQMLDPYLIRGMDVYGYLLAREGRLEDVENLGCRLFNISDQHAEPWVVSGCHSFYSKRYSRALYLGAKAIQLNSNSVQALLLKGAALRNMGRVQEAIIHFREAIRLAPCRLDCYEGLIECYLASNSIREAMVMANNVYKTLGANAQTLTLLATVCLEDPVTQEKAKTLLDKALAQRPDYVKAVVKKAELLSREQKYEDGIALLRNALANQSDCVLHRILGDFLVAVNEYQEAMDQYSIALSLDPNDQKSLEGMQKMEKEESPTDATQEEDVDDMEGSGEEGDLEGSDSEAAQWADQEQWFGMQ

Assays:
[1] = target: T1, full length IL-17RA (Myc-tagged) (UniProt Q60943); assay: co-IP; HEK293T cells co-transfected with HA-tagged AnapC7 or AnapC5 and a Myc-tagged partner; lysates immunoprecipitated with anti-Myc and immunoblotted for HA or Myc
T1 sequence: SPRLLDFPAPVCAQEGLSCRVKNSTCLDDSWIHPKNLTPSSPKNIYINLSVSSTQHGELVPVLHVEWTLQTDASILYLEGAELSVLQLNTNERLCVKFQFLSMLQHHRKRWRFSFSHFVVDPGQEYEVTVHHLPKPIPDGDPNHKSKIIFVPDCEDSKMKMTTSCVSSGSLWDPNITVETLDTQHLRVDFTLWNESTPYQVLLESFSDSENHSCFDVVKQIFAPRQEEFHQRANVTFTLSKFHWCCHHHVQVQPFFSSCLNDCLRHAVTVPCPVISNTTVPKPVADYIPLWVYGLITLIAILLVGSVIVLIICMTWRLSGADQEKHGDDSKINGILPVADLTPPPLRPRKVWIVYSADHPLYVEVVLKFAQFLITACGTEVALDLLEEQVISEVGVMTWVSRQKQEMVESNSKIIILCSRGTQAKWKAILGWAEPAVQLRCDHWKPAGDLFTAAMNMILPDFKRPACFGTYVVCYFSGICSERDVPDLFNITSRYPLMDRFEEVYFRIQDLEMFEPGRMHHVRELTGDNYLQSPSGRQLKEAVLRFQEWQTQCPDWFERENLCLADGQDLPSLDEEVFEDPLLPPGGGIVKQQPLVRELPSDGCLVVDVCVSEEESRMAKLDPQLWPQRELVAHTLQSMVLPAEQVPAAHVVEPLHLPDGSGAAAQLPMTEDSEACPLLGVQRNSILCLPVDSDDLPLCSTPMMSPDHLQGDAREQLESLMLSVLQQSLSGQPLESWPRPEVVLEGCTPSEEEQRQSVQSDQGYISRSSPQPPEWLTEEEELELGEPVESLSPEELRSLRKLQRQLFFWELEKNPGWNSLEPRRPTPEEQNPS

[2] = target: T2, full length IL-17RC (Myc-tagged) (UniProt Q8K4C2); assay: as above
T2 sequence: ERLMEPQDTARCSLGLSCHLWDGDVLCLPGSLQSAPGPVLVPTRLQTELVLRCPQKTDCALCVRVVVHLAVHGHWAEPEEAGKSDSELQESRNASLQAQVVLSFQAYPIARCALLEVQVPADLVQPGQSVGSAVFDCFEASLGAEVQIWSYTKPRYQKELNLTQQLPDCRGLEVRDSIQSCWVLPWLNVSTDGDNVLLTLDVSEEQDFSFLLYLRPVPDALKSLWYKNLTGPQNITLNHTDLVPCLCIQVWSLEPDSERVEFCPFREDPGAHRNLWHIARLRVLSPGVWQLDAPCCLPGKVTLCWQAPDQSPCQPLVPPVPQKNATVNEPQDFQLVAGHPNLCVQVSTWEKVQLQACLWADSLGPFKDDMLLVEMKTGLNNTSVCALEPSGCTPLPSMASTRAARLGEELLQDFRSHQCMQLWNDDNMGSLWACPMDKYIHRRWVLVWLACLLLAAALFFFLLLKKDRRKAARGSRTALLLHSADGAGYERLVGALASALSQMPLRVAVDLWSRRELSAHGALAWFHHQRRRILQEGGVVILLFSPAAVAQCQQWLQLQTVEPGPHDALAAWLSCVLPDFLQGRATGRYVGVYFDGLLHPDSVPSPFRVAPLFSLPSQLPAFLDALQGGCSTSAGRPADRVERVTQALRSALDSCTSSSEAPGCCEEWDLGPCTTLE

binding [1]: binds
binding [2]: binds
Substance: AnapC7 (HA-tagged) (from UniProt Q9WVM3 1-565)
